This assay concerns the target T1, FLAG-tagged miP-FERMT3 fusion protein (human).
T1 sequence: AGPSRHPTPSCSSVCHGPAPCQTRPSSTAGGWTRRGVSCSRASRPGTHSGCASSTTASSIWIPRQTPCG
The experiment in a line: co-IP; FLAG-miP-FERMT3 precipitated with anti-FLAG affinity gel from endothelial cell lysates (500 µg, overnight; 50 mmol/L Tris/HCl pH 7.5, 150 mmol/L NaCl, 1% NP-40); immunoblotting for TRIM8 and PSMD9; EGFP-expressing cells as control.

For two molecules, binding results are on record in publication PMC13295548.

Results are given in words; binding and its absence hold for the method and conditions named. Binding seen in cells or lysates may run through a third protein. Some binding calls cover weakened binding; strength is not graded here. Sequences can lack the tags named with a protein.

B1: 26S proteasome non-ATPase regulatory subunit 9 (protein, UniProt O00233 1-223)
chain: MSDEEARQSGGSSQAGVVTVSDVQELMRRKEEIEAQIKANYDVLESQKGIGMNEPLVDCEGYPRSDVDLYQVRTARHNIICLQNDHKAVMKQVEEALHQLHARDKEKQARDMAEAHKEAMSRKLGQSESQGPPRAFAKVNSISPGSPASIAGLQVDDEIVEFGSVNTQNFQSLHNIGSVVQHSEGKPLNVTVIRRGEKHQLRLVPTRWAGKGLLGCNIIPLQR
With B1, the binding result was “binds”.

B2: tripartite motif containing 8 (protein, UniProt Q9BZR9 1-551)
chain: MAENWKNCFEEELICPICLHVFVEPVQLPCKHNFCRGCIGEAWAKDSGLVRCPECNQAYNQKPGLEKNLKLTNIVEKFNALHVEKPPAALHCVFCRRGPPLPAQKVCLRCEAPCCQSHVQTHLQQPSTARGHLLVEADDVRAWSCPQHNAYRLYHCEAEQVAVCQYCCYYSGAHQGHSVCDVEIRRNEIRKMLMKQQDRLEEREQDIEDQLYKLESDKRLVEEKVNQLKEEVRLQYEKLHQLLDEDLRQTVEVLDKAQAKFCSENAAQALHLGERMQEAKKLLGSLQLLFDKTEDVSFMKNTKSVKILMDRTQTCTSSSLSPTKIGHLNSKLFLNEVAKKEKQLRKMLEGPFSTPVPFLQSVPLYPCGVSSSGAEKRKHSTAFPEASFLETSSGPVGGQYGAAGTASGEGQSGQPLGPCSSTQHLVALPGGAQPVHSSPVFPPSQYPNGSAAQQPMLPQYGGRKILVCSVDNCYCSSVANHGGHQPYPRSGHFPWTVPSQEYSHPLPPTPSVPQSLPSLAVRDWLDASQQPGHQDFYRVYGQPSTKHYVTS
As for B2, the binding result was “binds”.
